Measured values published in patent US20140112883A1.
No constants are given. Whether binding was seen depends on the method and setting. Some results given as binding are weak or reduced against the parent protein; the word gives no strength.

Tests used:
[1] = target: human CD4 receptor on human lymphocytes (human) (UniProt P01730); assay: flow cytometry of whole blood from dosed subjects, anti-human IgG detection
[2] = target: human CD4 receptor on human lymphocytes (human) (UniProt P01730); assay: flow cytometry, free TRX1 binding sites stained with biotinylated TRX1, blood of subjects dosed with TRX1
[3] = target: soluble human CD4 (Affinity Bioreagents) (human) (UniProt P01730); assay: ELISA, soluble human CD4 coated at 2 µg/ml, serum TRX1 detected with anti-human IgG F(ab)'2-peroxidase

binding [1]: binds
binding [2]: binds
binding [3]: binds
B1: TRX1 antibody (humanized anti-CD4 IgG1 monoclonal antibody, aglycosyl, N297A) (antibody, V domains shown)
VH: QVQLVQSGAEVKKPGASVKVSCKASGYTFTAYVISWVRQAPGQGLEWMGEIYPGSGSSYYNEKFKGRVTNTRDTSTSTVYMELSSLRSEDTAVYYCARSGDGSRFVYWGQGTLVTVSS
VL: DIVMTQSPDSLAVSLGERATINCKASQSVDYDGDSYSNWYQQKPGQPPKLLIYVASNLESGVPDRFSGSGSGTDFTLTISSLQAEDVAVYYCQQSLQDPPTFGGGTKVEIKR
